We go through four molecules from PMC8220078.

Results are given in words; binding and its absence hold for the method and conditions named. For some of these results: Binding seen in cells or lysates may run through a third protein. Some entries that bind do so weakly or less than the wild type. For some of these results: Sequences can lack the tags named with a protein.

Assay [1] deals with T1, CAT2 (catalase 2), pGBKT7-CAT2 two-hybrid fusion (Arabidopsis thaliana) (UniProt P25819).
T1 sequence: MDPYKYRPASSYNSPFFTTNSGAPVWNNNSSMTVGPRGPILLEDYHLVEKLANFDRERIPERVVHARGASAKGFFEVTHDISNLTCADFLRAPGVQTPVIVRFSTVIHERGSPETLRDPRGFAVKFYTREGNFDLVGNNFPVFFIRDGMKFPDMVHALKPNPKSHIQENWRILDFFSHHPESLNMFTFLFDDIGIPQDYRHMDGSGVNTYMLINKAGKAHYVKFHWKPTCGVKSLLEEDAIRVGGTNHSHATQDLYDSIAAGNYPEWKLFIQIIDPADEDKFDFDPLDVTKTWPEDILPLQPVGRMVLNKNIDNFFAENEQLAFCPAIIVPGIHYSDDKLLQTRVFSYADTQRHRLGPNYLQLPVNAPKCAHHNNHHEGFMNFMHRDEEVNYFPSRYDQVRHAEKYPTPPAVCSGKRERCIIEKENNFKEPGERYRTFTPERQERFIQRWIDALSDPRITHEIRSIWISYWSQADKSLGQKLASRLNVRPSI
Put plainly: two-hybrid; yeast two-hybrid, Matchmaker system (Clontech); LAP2 in pGADT7, CAT2 in pGBKT7.

The target in assay [2] is T2, GFP-LAP2 (35S:GFP–LAP2) (Arabidopsis thaliana) (UniProt Q944P7).
T2 sequence: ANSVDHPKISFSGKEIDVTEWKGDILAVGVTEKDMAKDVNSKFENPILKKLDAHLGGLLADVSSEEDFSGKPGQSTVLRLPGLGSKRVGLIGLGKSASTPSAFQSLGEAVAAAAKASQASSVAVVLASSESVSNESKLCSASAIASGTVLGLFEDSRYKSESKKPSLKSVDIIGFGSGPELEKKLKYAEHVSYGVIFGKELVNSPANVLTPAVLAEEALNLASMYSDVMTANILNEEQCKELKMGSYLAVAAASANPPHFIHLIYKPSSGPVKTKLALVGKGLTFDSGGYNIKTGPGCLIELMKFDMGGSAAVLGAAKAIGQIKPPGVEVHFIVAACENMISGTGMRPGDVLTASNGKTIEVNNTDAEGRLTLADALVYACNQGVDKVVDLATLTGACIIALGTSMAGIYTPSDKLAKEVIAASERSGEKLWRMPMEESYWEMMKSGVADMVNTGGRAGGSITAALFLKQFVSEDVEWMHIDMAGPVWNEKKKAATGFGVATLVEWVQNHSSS
Put plainly: co-IP; 35S:GFP-LAP2 and 35S:CAT2-Flag co-expressed in N. benthamiana leaves for 3 days; total proteins immunoprecipitated with gel-conjugated anti-GFP mAb, immunoblotted with anti-Flag. For orientation: In western blotting, separated proteins are transferred to a membrane and probed.

Assay [3] addresses T3, cLUC-LAP2 (Arabidopsis thaliana) (UniProt Q944P7).
T3 sequence: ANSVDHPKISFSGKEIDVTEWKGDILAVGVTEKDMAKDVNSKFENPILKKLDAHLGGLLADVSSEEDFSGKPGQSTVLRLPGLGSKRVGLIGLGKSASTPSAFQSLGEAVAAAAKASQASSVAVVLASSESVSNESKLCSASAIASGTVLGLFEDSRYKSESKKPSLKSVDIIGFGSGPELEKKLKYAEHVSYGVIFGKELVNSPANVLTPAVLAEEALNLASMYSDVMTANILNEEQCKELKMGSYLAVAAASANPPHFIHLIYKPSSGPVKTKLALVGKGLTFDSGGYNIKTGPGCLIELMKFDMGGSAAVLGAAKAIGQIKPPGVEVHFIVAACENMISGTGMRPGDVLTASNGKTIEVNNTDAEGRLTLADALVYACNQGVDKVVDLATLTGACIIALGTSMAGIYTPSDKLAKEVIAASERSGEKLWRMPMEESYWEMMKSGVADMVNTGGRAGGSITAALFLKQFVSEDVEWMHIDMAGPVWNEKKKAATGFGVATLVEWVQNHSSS
Put plainly: split reporter; luciferase complementation imaging (LCI); nLUC-CAT2 and cLUC-LAP2 co-expressed in N. benthamiana leaves, 3 days after infiltration, D-luciferin.

Assay [4] addresses T4, LAP2-YFPc (35S:LAP2-YFPc) (Arabidopsis) (UniProt Q944P7).
T4 sequence: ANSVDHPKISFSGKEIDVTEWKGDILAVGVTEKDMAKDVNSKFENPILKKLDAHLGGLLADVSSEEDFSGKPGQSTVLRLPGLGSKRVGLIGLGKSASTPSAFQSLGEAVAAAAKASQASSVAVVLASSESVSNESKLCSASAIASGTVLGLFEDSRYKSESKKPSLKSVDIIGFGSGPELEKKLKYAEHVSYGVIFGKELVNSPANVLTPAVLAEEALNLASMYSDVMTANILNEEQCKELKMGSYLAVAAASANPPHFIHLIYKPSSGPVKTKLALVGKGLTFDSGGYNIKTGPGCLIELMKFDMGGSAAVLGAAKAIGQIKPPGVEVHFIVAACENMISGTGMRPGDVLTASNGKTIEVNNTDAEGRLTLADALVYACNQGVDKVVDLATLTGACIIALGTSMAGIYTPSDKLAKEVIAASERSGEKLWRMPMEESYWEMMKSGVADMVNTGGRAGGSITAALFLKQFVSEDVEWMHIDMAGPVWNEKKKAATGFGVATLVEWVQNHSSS
Put plainly: split reporter; BiFC; CAT2-YFPn and LAP2-YFPc expressed in N. benthamiana leaves, 3 days after infiltration, confocal microscopy.

B1: Leucine aminopeptidase 2 (LAP2), pGADT7 two-hybrid fusion (protein, UniProt Q944P7 1-583)
chain: MAVTLVTSFASSSSRFHFRSFSSSPSSLSSCFVRFQFPSRLRLAFAVTPLYSSSRAMAHTISHATLGLTQANSVDHPKISFSGKEIDVTEWKGDILAVGVTEKDMAKDVNSKFENPILKKLDAHLGGLLADVSSEEDFSGKPGQSTVLRLPGLGSKRVGLIGLGKSASTPSAFQSLGEAVAAAAKASQASSVAVVLASSESVSNESKLCSASAIASGTVLGLFEDSRYKSESKKPSLKSVDIIGFGSGPELEKKLKYAEHVSYGVIFGKELVNSPANVLTPAVLAEEALNLASMYSDVMTANILNEEQCKELKMGSYLAVAAASANPPHFIHLIYKPSSGPVKTKLALVGKGLTFDSGGYNIKTGPGCLIELMKFDMGGSAAVLGAAKAIGQIKPPGVEVHFIVAACENMISGTGMRPGDVLTASNGKTIEVNNTDAEGRLTLADALVYACNQGVDKVVDLATLTGACIIALGTSMAGIYTPSDKLAKEVIAASERSGEKLWRMPMEESYWEMMKSGVADMVNTGGRAGGSITAALFLKQFVSEDVEWMHIDMAGPVWNEKKKAATGFGVATLVEWVQNHSSS
For the molecule B1, in assay [1], the binding result is “binds”.

B2: CAT2-Flag (35S:CAT2-Flag) (protein, UniProt P25819 1-492)
chain: MDPYKYRPASSYNSPFFTTNSGAPVWNNNSSMTVGPRGPILLEDYHLVEKLANFDRERIPERVVHARGASAKGFFEVTHDISNLTCADFLRAPGVQTPVIVRFSTVIHERGSPETLRDPRGFAVKFYTREGNFDLVGNNFPVFFIRDGMKFPDMVHALKPNPKSHIQENWRILDFFSHHPESLNMFTFLFDDIGIPQDYRHMDGSGVNTYMLINKAGKAHYVKFHWKPTCGVKSLLEEDAIRVGGTNHSHATQDLYDSIAAGNYPEWKLFIQIIDPADEDKFDFDPLDVTKTWPEDILPLQPVGRMVLNKNIDNFFAENEQLAFCPAIIVPGIHYSDDKLLQTRVFSYADTQRHRLGPNYLQLPVNAPKCAHHNNHHEGFMNFMHRDEEVNYFPSRYDQVRHAEKYPTPPAVCSGKRERCIIEKENNFKEPGERYRTFTPERQERFIQRWIDALSDPRITHEIRSIWISYWSQADKSLGQKLASRLNVRPSI
Regarding B2, the binding entry in assay [2] was “binds”.

B3: nLUC-CAT2 (protein, UniProt P25819 1-492)
chain: MDPYKYRPASSYNSPFFTTNSGAPVWNNNSSMTVGPRGPILLEDYHLVEKLANFDRERIPERVVHARGASAKGFFEVTHDISNLTCADFLRAPGVQTPVIVRFSTVIHERGSPETLRDPRGFAVKFYTREGNFDLVGNNFPVFFIRDGMKFPDMVHALKPNPKSHIQENWRILDFFSHHPESLNMFTFLFDDIGIPQDYRHMDGSGVNTYMLINKAGKAHYVKFHWKPTCGVKSLLEEDAIRVGGTNHSHATQDLYDSIAAGNYPEWKLFIQIIDPADEDKFDFDPLDVTKTWPEDILPLQPVGRMVLNKNIDNFFAENEQLAFCPAIIVPGIHYSDDKLLQTRVFSYADTQRHRLGPNYLQLPVNAPKCAHHNNHHEGFMNFMHRDEEVNYFPSRYDQVRHAEKYPTPPAVCSGKRERCIIEKENNFKEPGERYRTFTPERQERFIQRWIDALSDPRITHEIRSIWISYWSQADKSLGQKLASRLNVRPSI
As to B3, the binding result in assay [3] is “binds”.

B4: CAT2-YFPn (35S:CAT2-YFPn) (protein, UniProt P25819 1-492)
chain: MDPYKYRPASSYNSPFFTTNSGAPVWNNNSSMTVGPRGPILLEDYHLVEKLANFDRERIPERVVHARGASAKGFFEVTHDISNLTCADFLRAPGVQTPVIVRFSTVIHERGSPETLRDPRGFAVKFYTREGNFDLVGNNFPVFFIRDGMKFPDMVHALKPNPKSHIQENWRILDFFSHHPESLNMFTFLFDDIGIPQDYRHMDGSGVNTYMLINKAGKAHYVKFHWKPTCGVKSLLEEDAIRVGGTNHSHATQDLYDSIAAGNYPEWKLFIQIIDPADEDKFDFDPLDVTKTWPEDILPLQPVGRMVLNKNIDNFFAENEQLAFCPAIIVPGIHYSDDKLLQTRVFSYADTQRHRLGPNYLQLPVNAPKCAHHNNHHEGFMNFMHRDEEVNYFPSRYDQVRHAEKYPTPPAVCSGKRERCIIEKENNFKEPGERYRTFTPERQERFIQRWIDALSDPRITHEIRSIWISYWSQADKSLGQKLASRLNVRPSI
Consider B4, for which the binding entry in assay [4] is reported as “binds”.
